Assay results from publication PMC3342958, “IDN2 and Its Paralogs Form a Complex Required for RNA–Directed DNA Methylation”.
No constants are given. Whether binding was seen depends on the method and setting. Binding calls can cover weak binding; strength is not graded here. Where a sequence is shown, tags or fusion partners need not be part of it.

Biological target: IDN2 XH domain, yeast two-hybrid bait (Arabidopsis thaliana)
Experiment: two-hybrid; pGADT7 and pGBKT7 constructs co-transformed into yeast strain PJ694a; spot assay on SD-trp-leu-his with 5 mM to 20 mM 3-AT; HIS reporter

| binding | Binder |
| --- | --- |
| binds | IDP1, yeast two-hybrid fusion (protein, UniProt Q9S9P3 1-634) MSISDEEAEISESEIEDYSETPYRLLRDGTYKVKVNGQLRCPFCAGKKKQDYKYKELYAHATGVSKGSATRSALQKANHLALAMFLENELAGYAEPVPRPPVVPPQLDETEPNPHNVYVWPWMGIVVNPLKEADDKELLLDSAYWLQTLSKFKPIEVNAFWVEQDSIVGVIAKFNGDWSGFAGATELEKEFETQGSSKKEWTERSGDSESKAYGWCARADDFESQGPIGEYLSKEGQLRTVSDISQKNVQDRNTVLEELSDMIAMTNEDLNKVQYSYNRTAMSLQRVLDEKKNLHQAFADETKKMQQMSLRHIQKILYDKEKLSNELDRKMRDLESRAKQLEKHEALTELDRQKLDEDKRKSDAMNKSLQLASREQKKADESVLRLVEEHQRQKEDALNKILLLEKQLDTKQTLEMEIQELKGKLQVMKHLGDDDDEAVQKKMKEMNDELDDKKAELEGLESMNSVLMTKERQSNDEIQAARKKLIAGLTGLLGAETDIGVKRMGELDEKPFLDVCKLRYSANEAAVEAATLCSTWQENLKNPSWQPFKHEGTGDGAEEVVDEDDEQLKKLKREWGKEVHNAVKTALVEMNEYNASGRYTTPELWNFKEGRKATLKEVITFISNDIKILKRKRT |
| binds | IDP2, yeast two-hybrid fusion (protein, UniProt F4JH53 1-635) MDISDEESEISESEIEEYSKTPYHLLRSETYYKVKVNGRLRCPFCVGKKKQDYKYKELHAHATGVSKGSATRSALQKSNHLALAKFLENDLAGYAEPLPRPPVVPPLLDETEPNPHNVYVWPWMGIVVNPLKETDDKELLLDSVYWLQTLSKFKPVEVNAFWVEQDSIVGVIAKFDSDWSGFAAATELEKEFETQGSCKKEWTERSGDSESKAYGWCARADDFQSQGPIGEYLSKEGTLRTVSDILQNNVQDRNTLLDVLSNMIDMTNEDLNKAQHSYNRTAMSLQRVLDEKKNLHQAFAEETKKMQQMSLRHIQRILYDKEKLRNELDRKMRDLESRAKQLEKHEALTELERQKLDEDKRKSDAMNKSLQLASREQKKADESVLRLVEEHQRQKEDALNKILLLEKQLDTKQTLEMEIQELKGKLQVMKHLGDDDDEAVQTKMKEMNDELDDKKAELEDLESMNSVLMTKERQSNDEIQAARQKMIAGLTGLLGAESDIGVKRMGELDEKPFLDVCKLRYSANEARVEAATLCSTWKENLKNPSWQPFKREGTGDGAEEVVDEDDEQLKKLKREWGKEVHNAVKAALVEMNEYNASGRYPTSELWNFKEGRKATLKEVITFISTDIKNLKRKRT |
| no binding | IDN2, yeast two-hybrid fusion (protein, UniProt Q8VZ79 1-647) MGSTVILSSDDEDSDISESEMDEYGDKMYLNLKGGKLKVRLSPQAFICPYCPNKKKTSFQYKDLLQHASGVGNSNSDKRSAKEKASHLALVKYLQQDLADSASEAEPSSKRQKNGNPIQDCDHDEKLVYPWKGIVVNIPTTKAQDGRSAGESGSKLRDEYILRGFNPTRVRPLWNYLGHSGTAIVEFNKDWNGLHNGLLFDKAYTVDGHGKKDWLKKDGPKLGLYGWIARADDYNGNNIIGENLRKTGDLKTIAELTEEEARKQELLVQNLRQLVEEKKKDMKEIEELCSVKSEELNQLMEEKEKNQQKHYRELNAIQERTMSHIQKIVDDHEKLKRLLESERKKLEIKCNELAKREVHNGTERMKLSEDLEQNASKNSSLELAAMEQQKADEEVKKLAEDQRRQKEELHEKIIRLERQRDQKQAIELEVEQLKGQLNVMKHMASDGDAEVVKEVDIIFKDLGEKEAQLADLDKFNQTLILRERRTNDELQEAHKELVNIMKEWNTNIGVKRMGELVTKPFVDAMQQKYCQQDVEDRAVEVLQLWEHYLKDSDWHPFKRVKLENEDREVEVIDDRDEKLRELKADLGDGPYNAVTKALLEINEYNPSGRYITTELWNFKADKKATLEEGVTCLLDQWEKAKRKRGMA |
